Source: article PMC4303897
No constants are given. Whether binding was seen depends on the method and setting. In cells and extracts the contact can be indirect. Some results given as binding are weak or reduced against the parent protein; the word gives no strength.

Sequences of proteins named here, by UniProt entry; tags and fusion partners are left off. Residues count along the entry.
UniProt Q8WVM0, residues 28-346: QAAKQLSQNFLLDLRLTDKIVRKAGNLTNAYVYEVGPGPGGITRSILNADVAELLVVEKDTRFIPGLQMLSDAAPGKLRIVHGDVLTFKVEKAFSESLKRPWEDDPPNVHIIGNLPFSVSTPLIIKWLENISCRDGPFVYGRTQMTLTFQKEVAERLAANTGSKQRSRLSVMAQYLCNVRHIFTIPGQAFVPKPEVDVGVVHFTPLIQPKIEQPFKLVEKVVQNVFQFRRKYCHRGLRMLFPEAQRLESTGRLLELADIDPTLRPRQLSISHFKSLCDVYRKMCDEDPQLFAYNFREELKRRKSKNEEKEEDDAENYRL

Biological target: T1, Mic60 (as used in the co-IP with TFB1M) (human) (UniProt Q16891)
T1 sequence: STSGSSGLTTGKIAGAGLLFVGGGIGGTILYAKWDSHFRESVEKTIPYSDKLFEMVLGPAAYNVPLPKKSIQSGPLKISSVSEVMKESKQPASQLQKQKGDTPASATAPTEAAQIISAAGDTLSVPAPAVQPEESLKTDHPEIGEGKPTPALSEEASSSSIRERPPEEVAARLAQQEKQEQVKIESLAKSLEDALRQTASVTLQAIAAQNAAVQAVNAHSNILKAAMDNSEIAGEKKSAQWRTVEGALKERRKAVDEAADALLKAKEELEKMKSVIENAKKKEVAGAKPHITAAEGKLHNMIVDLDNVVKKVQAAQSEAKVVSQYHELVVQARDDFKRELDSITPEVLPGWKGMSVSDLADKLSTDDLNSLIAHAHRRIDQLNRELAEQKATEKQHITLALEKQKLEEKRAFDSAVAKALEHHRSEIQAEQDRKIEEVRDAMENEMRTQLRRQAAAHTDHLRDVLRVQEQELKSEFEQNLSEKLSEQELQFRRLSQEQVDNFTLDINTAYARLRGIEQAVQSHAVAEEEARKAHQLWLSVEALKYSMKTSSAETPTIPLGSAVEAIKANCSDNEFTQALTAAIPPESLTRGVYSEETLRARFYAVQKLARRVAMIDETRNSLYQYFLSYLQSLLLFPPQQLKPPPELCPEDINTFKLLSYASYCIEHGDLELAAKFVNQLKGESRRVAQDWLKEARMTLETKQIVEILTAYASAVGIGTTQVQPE
Experiment: co-IP; co-IP of Mic60 and TFB1M shown in Supplementary figure S1; constructs and cells not told in the main text

binding: binds
Substance: TFB1M (from UniProt Q8WVM0 28-346)
